This note sets out measurements from PMC9917391.

By UniProt entry, the sequences of proteins in these tests, tags left out. Residues count along the entry.
UniProt Q8N884: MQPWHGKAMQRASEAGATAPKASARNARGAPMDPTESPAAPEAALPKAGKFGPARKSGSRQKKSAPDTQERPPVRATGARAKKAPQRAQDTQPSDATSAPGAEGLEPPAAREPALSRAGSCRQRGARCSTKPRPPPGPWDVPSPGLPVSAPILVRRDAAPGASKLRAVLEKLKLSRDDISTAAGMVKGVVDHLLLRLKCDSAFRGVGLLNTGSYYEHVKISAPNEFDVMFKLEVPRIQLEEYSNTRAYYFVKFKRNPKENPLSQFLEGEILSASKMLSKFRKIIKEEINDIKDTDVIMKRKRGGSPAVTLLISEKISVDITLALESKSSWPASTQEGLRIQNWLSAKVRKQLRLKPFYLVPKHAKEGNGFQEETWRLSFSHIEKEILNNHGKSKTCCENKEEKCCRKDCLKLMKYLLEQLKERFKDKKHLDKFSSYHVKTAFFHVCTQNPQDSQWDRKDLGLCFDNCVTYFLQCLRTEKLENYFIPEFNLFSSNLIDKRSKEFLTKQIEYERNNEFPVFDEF
UniProt Q9UQF0, residues 21-538: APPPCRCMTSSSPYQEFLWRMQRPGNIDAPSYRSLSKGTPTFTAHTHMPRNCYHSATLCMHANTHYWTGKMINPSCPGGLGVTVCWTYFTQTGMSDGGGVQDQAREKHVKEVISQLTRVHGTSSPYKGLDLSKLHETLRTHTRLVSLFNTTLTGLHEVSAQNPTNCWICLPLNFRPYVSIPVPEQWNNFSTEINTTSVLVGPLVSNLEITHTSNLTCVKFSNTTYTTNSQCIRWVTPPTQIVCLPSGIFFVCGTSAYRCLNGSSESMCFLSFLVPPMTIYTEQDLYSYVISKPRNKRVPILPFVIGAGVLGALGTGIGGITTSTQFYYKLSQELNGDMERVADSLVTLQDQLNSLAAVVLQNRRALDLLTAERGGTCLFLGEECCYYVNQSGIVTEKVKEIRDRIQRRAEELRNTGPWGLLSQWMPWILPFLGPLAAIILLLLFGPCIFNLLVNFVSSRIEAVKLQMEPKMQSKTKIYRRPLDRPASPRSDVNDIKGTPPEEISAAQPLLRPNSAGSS

Results are given in words; binding and its absence hold for the method and conditions named. In cells and extracts the contact can be indirect. Some results given as binding are weak or reduced against the parent protein; the word gives no strength.

The target in this experiment is cyclic GMP-AMP synthase (cGAS), FLAG-tagged (human) (UniProt Q8N884). Nature of the experiment: co-IP; HEK-293T cells co-transfected with pENTER-N-FLAG-cGAS and pXJ40-HA-ENV (5 ug + 5 ug), 48 h; lysate supernatant mixed with anti-Flag or anti-HA magnetic beads (mouse IgG as negative control) at 4 °C overnight; washed with cell lysis buffer; western blotting. In general terms: In western blotting, separated proteins are transferred to a membrane and probed.

Take “HERV-W ENV (endogenous retroviral envelope glycoprotein of the W family), HA-tagged (from UniProt Q9UQF0 21-538)”: the binding result is recorded as “binds”.
